Laboratory results reported in the supplement of paper PMC8728848.
Some of the results follow.

How the values were obtained:
Experiment in all cases: glycan array binding signal (z-score within array); higher = stronger binding
Conditions in all cases: glycan notation: IUPAC condensed, linker removed
[1] = biological target: Gal(b1-4)GlcNAc(b1-2)[Gal(b1-4)GlcNAc(b1-4)]Man(a1-3)[Gal(b1-4)GlcNAc(b1-2)[Gal(b1-4)GlcNAc(b1-6)]Man(a1-6)]Man(b1-4)GlcNAc(b1-4)GlcNAc
How it was run: (§1)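 Glycan array data were curated from 3228 arrays in the Consortium for Functional Glycomics database and kept only where the protein sequence was available. Glycan names were converted to IUPAC-condensed notation, and columns mapping to the same glycan were averaged. The binding signal is a within-array Z-score, averaged across arrays of the same protein sequence at different concentrations or buffers and across linkers. Negative Z-scores can be read as non-binding.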

[2] = biological target: Gal(b1-4)GlcNAc(b1-2)[Gal(b1-4)GlcNAc(b1-4)]Man(a1-3)[GlcNAc(b1-4)][Gal(b1-4)GlcNAc(b1-2)Man(a1-6)]Man(b1-4)GlcNAc(b1-4)GlcNAc
How it was run: as §1

[3] = biological target: Gal(b1-4)GlcNAc(b1-2)[Gal(b1-4)GlcNAc(b1-6)]Man(a1-6)[GlcNAc(b1-4)][Gal(b1-4)GlcNAc(b1-2)Man(a1-3)]Man(b1-4)GlcNAc(b1-4)GlcNAc
How it was run: as §1

[4] = biological target: Gal(b1-4)GlcNAc(b1-3)Gal(b1-3)GlcNAc
How it was run: as §1

[5] = biological target: Gal(b1-4)GlcNAc(b1-3)Gal(b1-4)Glc
How it was run: as §1

[6] = biological target: Gal(b1-4)GlcNAc(b1-3)Gal(b1-4)GlcNAc
How it was run: as §1

[7] = biological target: Gal(b1-4)GlcNAc(b1-3)Gal(b1-4)GlcNAc(b1-3)Gal(b1-4)GlcNAc
How it was run: as §1

[8] = biological target: Gal(b1-4)GlcNAc(b1-3)Gal(b1-4)[Fuc(a1-3)GlcNAc(b1-6)]Gal(b1-4)Glc
How it was run: as §1

[9] = biological target: Gal(b1-4)GlcNAc(b1-3)Gal(b1-4)[Fuc(a1-3)]GlcNAc(b1-3)Gal(b1-4)[Fuc(a1-3)]GlcNAc
How it was run: as §1

[10] = biological target: Gal(b1-4)GlcNAc(b1-3)GalNAc
How it was run: as §1

[11] = biological target: Gal(b1-4)GlcNAc(b1-3)[Gal(b1-4)GlcNAc(b1-6)]Gal(b1-4)GlcNAc
How it was run: as §1

[12] = biological target: Gal(b1-4)GlcNAc(b1-3)[Gal(b1-4)GlcNAc(b1-6)]GalNAc
How it was run: as §1

[13] = biological target: Gal(b1-4)GlcNAc(b1-3)[GlcNAc(b1-6)]Gal(b1-4)GlcNAc
How it was run: as §1

[14] = biological target: Gal(b1-4)GlcNAc(b1-6)Gal(b1-4)GlcNAc
How it was run: as §1

[15] = biological target: Gal(b1-4)GlcNAc(b1-6)GalNAc
How it was run: as §1

[16] = biological target: Gal(b1-4)GlcNAc(b1-6)[Gal(b1-3)]GalNAc
How it was run: as §1

Gal(b1-6)Gal = biological target: Gal(b1-6)Gal
How it was run: as §1

Gal3S(b1-3)GalNAc = biological target: Gal3S(b1-3)GalNAc
How it was run: as §1

Gal3S(b1-3)GlcNAc = biological target: Gal3S(b1-3)GlcNAc
How it was run: as §1

[17] = biological target: Gal3S(b1-3)[Fuc(a1-4)]GlcNAc
How it was run: as §1

Gal3S(b1-4)Glc = biological target: Gal3S(b1-4)Glc
How it was run: as §1

Gal3S(b1-4)Glc6S = biological target: Gal3S(b1-4)Glc6S
How it was run: as §1

Gal3S(b1-4)GlcNAc = biological target: Gal3S(b1-4)GlcNAc
How it was run: as §1

Gal3S(b1-4)GlcNAc6S = biological target: Gal3S(b1-4)GlcNAc6S
How it was run: as §1

[18] = biological target: Gal3S(b1-4)[Fuc(a1-3)]Glc
How it was run: as §1

[19] = biological target: Gal3S(b1-4)[Fuc(a1-3)]Glc6S
How it was run: as §1

Gal3S4S(b1-4)GlcNAc = biological target: Gal3S4S(b1-4)GlcNAc
How it was run: as §1

Gal3S6S(b1-4)GlcNAc = biological target: Gal3S6S(b1-4)GlcNAc
How it was run: as §1

Gal3S6S(b1-4)GlcNAc6S = biological target: Gal3S6S(b1-4)GlcNAc6S
How it was run: as §1

Gal4S(b1-4)GlcNAc = biological target: Gal4S(b1-4)GlcNAc
How it was run: as §1

Gal4S6S(b1-4)GlcNAc = biological target: Gal4S6S(b1-4)GlcNAc
How it was run: as §1

Gal6S(b1-3)GlcNAc = biological target: Gal6S(b1-3)GlcNAc
How it was run: as §1

Gal6S(b1-3)GlcNAc6S = biological target: Gal6S(b1-3)GlcNAc6S
How it was run: as §1

Gal6S(b1-4)Glc = biological target: Gal6S(b1-4)Glc
How it was run: as §1

Gal6S(b1-4)Glc6S = biological target: Gal6S(b1-4)Glc6S
How it was run: as §1

Gal6S(b1-4)GlcNAc = biological target: Gal6S(b1-4)GlcNAc
How it was run: as §1

Gal6S(b1-4)GlcNAc6S = biological target: Gal6S(b1-4)GlcNAc6S
How it was run: as §1

GalNAc(a1-3)Gal = biological target: GalNAc(a1-3)Gal
How it was run: as §1

GalNAc(a1-3)GalNAc = biological target: GalNAc(a1-3)GalNAc
How it was run: as §1

[20] = biological target: GalNAc(a1-3)GalNAc(a1-3)Gal(a1-4)Gal(b1-4)GlcNAc
How it was run: as §1

[21] = biological target: GalNAc(a1-3)GalNAc(b1-3)Gal(a1-4)Gal(b1-4)Glc
How it was run: as §1

GalNAc(b1-3)Gal = biological target: GalNAc(b1-3)Gal
How it was run: as §1

[22] = biological target: GalNAc(b1-3)Gal(a1-4)Gal(b1-4)GlcNAc
How it was run: as §1

[23] = biological target: GalNAc(b1-3)Gal(a1-4)Gal(b1-4)GlcNAc(b1-3)Gal(b1-4)Glc
How it was run: as §1

[24] = biological target: GalNAc(b1-3)Gal(a1-6)Gal(b1-4)Glc
How it was run: as §1

B1: pullulanase (Streptococcus pyogenes), Q8KLP1 (protein)
chain: MKKKVNQGSKRYQYLLKKWGIGFVIAATGTVMLGCIPSILTHQVAAKTIVGLARDEAQQGDGNAKSGDGFQSSSKEAKPVLDSSSANPASIAEHHLRMHFKTLPAGESLGSLGLWVWGDVDQPSKDWPNGAITMTKAKKDDYGYYLDVPLAAKHRQQVSYLINNKAGENLSKDQHIPLLTPKMNEVWIDENYHAHAYRPLKKGYLRINYHNQSGHYDNLAVWTFKDVKTPTTDWPNGLDLSHKGPYGAYVDVPLKEGANEIGFLILDKSKTGDAIKVQPKDYLFKELDNHTQVFVKDTDPKVYNNPYYIDQVSLKGAEQTTPNEIKAIFTTLDGLDEDAVKQNIKITDKAGKTVAIDELTLDKDKSVMTLKGDFKAQGAVYTVTFGEVSQVARQSWQLKDKLYAYDGELGATLAKDGSVDLALWSPSADSVKVVVYDKQDQTKVVGQADLTKSDKGVWRAHLTSDSVKGISDYTGYYYLYEITRGQEKVMVLDPYAKSLAAWNDATATDDIKTAKAAFIDPSKLGPTGLDFAKINNFKKREDAIIYEAHVRDFTSDKALEGKLTHPFGTFSAFVEQLDYLKDLGVTHVQLLPVLSYFYANELDKTRSTAYTSSDNNYNWGYDPQHYFALSGMYSANPNDPALRIAELKNLVNEIHKRGMGVIFDVVYNHTARTYLFEDLEPNYYHFMNADGTARESFGGGRLGTTHAMSRRILVDSITYLTREFKVDGFRFDMMGDHDAAAIEQAFKAAKAINPNTIMIGEGWRTYQGDEGKKEIAADQDWMKATNTVGVFSDDIRNTLKSGFPNEGTAAFITGGAKNLEGLFKTIKAQPSNFEADAPGDVVQYIAAHDNLTLHDVIAKSINKDPKVAEEEIHKRIRLGNTMILTAQGTAFIHSGQEYGRTKQLLNPDYKTKVSDDKVPNKATLIDAVAQYPYFIHDSYDSSDAVNHFDWAKATDSIAHPISNQTKAYTQGLIALRRSTDAFTKATKAEVDRDVTLITQAGQDGIQQEDLIMGYQTVASNGDRYAVFVNADNKTRKVVLPQAYRYLLGAQVLADAEQVGVTAIAKPKGVQFTKEGLTIDGLTALVLKVSSKTANPSQQKSQTDNHQTKTPDGSKDLDKSLMTRPKRAKTNQKLPKTGEAPSKGLLAAGVALLLLAISLLMKRQKD
[1]
  glycan array binding signal (z-score): -0.602
[2]
  glycan array binding signal (z-score): 0.829
[3]
  glycan array binding signal (z-score): 0.194
[4]
  glycan array binding signal (z-score): 0.206
[5]
  glycan array binding signal (z-score): 0.117
[6]
  glycan array binding signal (z-score): -0.647
[7]
  glycan array binding signal (z-score): 0.989
[8]
  glycan array binding signal (z-score): -0.926
[9]
  glycan array binding signal (z-score): 0.33
[10]
  glycan array binding signal (z-score): -0.565
[11]
  glycan array binding signal (z-score): -0.911
[12]
  glycan array binding signal (z-score): 0.93
[13]
  glycan array binding signal (z-score): -2.09
[14]
  glycan array binding signal (z-score): -1.19
[15]
  glycan array binding signal (z-score): 1.03
[16]
  glycan array binding signal (z-score): -0.486
Gal(b1-6)Gal
  glycan array binding signal (z-score): -1.46
Gal3S(b1-3)GalNAc
  glycan array binding signal (z-score): -0.01
Gal3S(b1-3)GlcNAc
  glycan array binding signal (z-score): 0.003
[17]
  glycan array binding signal (z-score): -0.731
Gal3S(b1-4)Glc
  glycan array binding signal (z-score): 1.42
Gal3S(b1-4)Glc6S
  glycan array binding signal (z-score): 0.14
Gal3S(b1-4)GlcNAc
  glycan array binding signal (z-score): 1.09
Gal3S(b1-4)GlcNAc6S
  glycan array binding signal (z-score): -0.754
[18]
  glycan array binding signal (z-score): 0.573
[19]
  glycan array binding signal (z-score): 1.65
Gal3S4S(b1-4)GlcNAc
  glycan array binding signal (z-score): -0.117
Gal3S6S(b1-4)GlcNAc
  glycan array binding signal (z-score): 0.465
Gal3S6S(b1-4)GlcNAc6S
  glycan array binding signal (z-score): -0.367
Gal4S(b1-4)GlcNAc
  glycan array binding signal (z-score): -0.804
Gal4S6S(b1-4)GlcNAc
  glycan array binding signal (z-score): -0.628
Gal6S(b1-3)GlcNAc
  glycan array binding signal (z-score): -1.16
Gal6S(b1-3)GlcNAc6S
  glycan array binding signal (z-score): 0.099
Gal6S(b1-4)Glc
  glycan array binding signal (z-score): -0.417
Gal6S(b1-4)Glc6S
  glycan array binding signal (z-score): 0.98
Gal6S(b1-4)GlcNAc
  glycan array binding signal (z-score): -0.745
Gal6S(b1-4)GlcNAc6S
  glycan array binding signal (z-score): -0.411
GalNAc(a1-3)Gal
  glycan array binding signal (z-score): -0.687
GalNAc(a1-3)GalNAc
  glycan array binding signal (z-score): 0.85
[20]
  glycan array binding signal (z-score): 0.205
[21]
  glycan array binding signal (z-score): -1.28
GalNAc(b1-3)Gal
  glycan array binding signal (z-score): 1.38
[22]
  glycan array binding signal (z-score): -0.85
[23]
  glycan array binding signal (z-score): 0.26
[24]
  glycan array binding signal (z-score): -1.16
